The values that follow come from article PMC9597352.

The chains behind the UniProt entries cited, without tags or fusion partners. Where a name states a change or a piece, a line headed by the entry shows the natural chain unless it says otherwise. A line that says so, or that is headed by a name, gives the form on record, which may keep a tag or linker. Residues count along the entry.
UniProt Q96T51: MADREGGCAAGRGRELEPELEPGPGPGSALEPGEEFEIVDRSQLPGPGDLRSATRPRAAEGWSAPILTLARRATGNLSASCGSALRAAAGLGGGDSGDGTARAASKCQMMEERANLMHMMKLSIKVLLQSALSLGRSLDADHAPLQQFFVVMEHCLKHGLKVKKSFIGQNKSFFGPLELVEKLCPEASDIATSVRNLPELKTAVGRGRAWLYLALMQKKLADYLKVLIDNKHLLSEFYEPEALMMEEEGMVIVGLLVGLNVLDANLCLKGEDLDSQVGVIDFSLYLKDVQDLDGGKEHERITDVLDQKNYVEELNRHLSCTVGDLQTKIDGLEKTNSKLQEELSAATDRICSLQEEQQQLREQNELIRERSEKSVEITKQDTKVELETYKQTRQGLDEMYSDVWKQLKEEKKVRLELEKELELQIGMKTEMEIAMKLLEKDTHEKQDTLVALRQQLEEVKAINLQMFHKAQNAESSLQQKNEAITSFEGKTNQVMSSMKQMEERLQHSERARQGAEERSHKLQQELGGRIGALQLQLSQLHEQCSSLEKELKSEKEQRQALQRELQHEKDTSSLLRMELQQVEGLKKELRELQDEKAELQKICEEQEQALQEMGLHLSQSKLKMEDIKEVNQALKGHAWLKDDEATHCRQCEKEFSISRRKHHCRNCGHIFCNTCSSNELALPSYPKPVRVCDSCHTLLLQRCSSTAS
GST-LIC1^WT (389–523 a.a.) (Q9Y6G9, residues 389-523): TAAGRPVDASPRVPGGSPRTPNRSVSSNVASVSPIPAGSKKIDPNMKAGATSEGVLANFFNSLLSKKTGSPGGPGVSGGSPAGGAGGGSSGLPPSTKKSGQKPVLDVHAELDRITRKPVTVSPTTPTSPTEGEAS
GST-LIC1^FFAA (F447A/F448A) (Q9Y6G9, form named): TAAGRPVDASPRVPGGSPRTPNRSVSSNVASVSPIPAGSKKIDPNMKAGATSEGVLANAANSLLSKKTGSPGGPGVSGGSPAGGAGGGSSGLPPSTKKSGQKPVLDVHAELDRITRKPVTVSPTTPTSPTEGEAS
UniProt Q9NVJ2: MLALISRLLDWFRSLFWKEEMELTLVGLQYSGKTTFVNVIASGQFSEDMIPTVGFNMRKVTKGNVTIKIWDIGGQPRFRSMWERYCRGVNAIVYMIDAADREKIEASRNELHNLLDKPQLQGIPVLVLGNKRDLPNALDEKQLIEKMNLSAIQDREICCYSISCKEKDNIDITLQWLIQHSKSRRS
UniProt Q9Y4G2: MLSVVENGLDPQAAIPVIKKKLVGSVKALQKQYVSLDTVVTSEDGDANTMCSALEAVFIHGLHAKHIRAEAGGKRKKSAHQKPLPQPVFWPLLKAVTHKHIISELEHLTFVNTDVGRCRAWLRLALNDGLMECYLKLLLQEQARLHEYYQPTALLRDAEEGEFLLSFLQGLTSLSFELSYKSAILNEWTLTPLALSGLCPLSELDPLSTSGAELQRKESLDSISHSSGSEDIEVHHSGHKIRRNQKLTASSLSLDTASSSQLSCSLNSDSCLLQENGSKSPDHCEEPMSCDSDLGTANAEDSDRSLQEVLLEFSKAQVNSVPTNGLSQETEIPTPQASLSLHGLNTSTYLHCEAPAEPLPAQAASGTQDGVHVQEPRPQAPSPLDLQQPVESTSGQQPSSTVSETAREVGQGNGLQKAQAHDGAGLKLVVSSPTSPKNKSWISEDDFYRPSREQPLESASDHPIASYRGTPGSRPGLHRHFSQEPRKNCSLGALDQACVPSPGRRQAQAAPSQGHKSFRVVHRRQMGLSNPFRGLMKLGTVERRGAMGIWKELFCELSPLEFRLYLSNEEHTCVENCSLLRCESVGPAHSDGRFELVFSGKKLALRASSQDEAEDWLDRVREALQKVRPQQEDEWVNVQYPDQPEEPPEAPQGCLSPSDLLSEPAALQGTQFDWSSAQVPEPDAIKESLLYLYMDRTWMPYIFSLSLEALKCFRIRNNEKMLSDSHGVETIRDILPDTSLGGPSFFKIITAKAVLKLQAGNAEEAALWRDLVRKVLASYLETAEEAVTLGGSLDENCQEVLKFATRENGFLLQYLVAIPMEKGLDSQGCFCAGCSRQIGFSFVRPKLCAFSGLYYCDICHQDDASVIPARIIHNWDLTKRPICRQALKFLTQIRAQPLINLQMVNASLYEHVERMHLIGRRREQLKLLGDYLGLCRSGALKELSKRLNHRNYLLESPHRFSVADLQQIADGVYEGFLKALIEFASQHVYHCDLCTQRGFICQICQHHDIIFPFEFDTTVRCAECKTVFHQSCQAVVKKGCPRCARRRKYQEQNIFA

Experiment [1] has as its target RUFY1 (endogenous, HEK293T) (human (endogenous in HEK293T)) (UniProt Q96T51). Kind of experiment: co-IP; endogenous proteins, HEK293T lysates; anti-RUFY1 antibody on Protein-A/G beads.
Experiment [2] deals with GST-LIC1^WT (389–523 a.a.) (human) (UniProt Q9Y6G9). Put plainly: pull-down; GST-LIC1 (389–523; WT or FFAA) on glutathione-agarose beads, HEK293T lysates expressing RUFY1-FLAG or 2x-FKBP-GFP-RUFY1 (WT or mutants), 2 h, 4°C; anti-FLAG or anti-GFP blot; only the target purified.
Experiment [3] concerns the target Arl8b (endogenous, HeLa) (human (endogenous in HeLa)) (UniProt Q9NVJ2). Kind of experiment: co-IP; endogenous proteins, HeLa lysates; anti-Arl8a/b antibody-conjugated agarose beads, or anti-Rab8 antibodies on Protein A/G beads.
Experiment [4] addresses GST-LIC1^FFAA (F447A/F448A) (human) (UniProt Q9Y6G9). Kind of experiment: pull-down; GST-LIC1 (389–523; WT or FFAA) on glutathione-agarose beads, HEK293T lysates expressing RUFY1-FLAG or 2x-FKBP-GFP-RUFY1 (WT or mutants), 2 h, 4°C; anti-FLAG or anti-GFP blot; only the target purified.

No constants are given. Whether binding was seen depends on the method and setting. Binding seen in cells or lysates may run through a third protein. Some entries that bind do so weakly or less than the wild type.

Turning to “p150^glued (dynactin) (from UniProt Q14203-1 1-1278)”, the binding result in experiment [1] is “binds”. For the substance “2x-FKBP-GFP-RUFY1 (FL) (from UniProt Q96T51 1-708)”, the binding result in experiment [2] is “binds”. As for “PLEKHM1 (endogenous, HeLa) (from UniProt Q9Y4G2 1-1056)”, the binding result in experiment [3] was “binds”. As to “RUFY1 (WT)-FLAG (longer isoform, Rabip4′) (from UniProt Q96T51 1-708)”, the binding result in experiment [2] and in experiment [4] was “binds” in each case.
